Data taken from publication PMC5871769.
Results are given in words; binding and its absence hold for the method and conditions named. Binding calls can cover weak binding; strength is not graded here. For some assays here: In cells and extracts the contact can be indirect. For some assays here: Sequences can lack the tags named with a protein.

Columns and labels:
[1] = biological target: BD-NIb (Turnip mosaic virus); assay: two-hybrid; yeast strain Y2H Gold; prey in pGADT7-DEST (AD), bait in pGBKT7-DEST (BD); growth on SD/-Trp-Leu-His-Ade
[2] = biological target: NIb (BiFC fusion) (Turnip mosaic virus); assay: split reporter; BiFC with YN and YC fragments of YFP in agroinfiltrated leaves of H2B-RFP transgenic N. benthamiana; confocal imaging at 48 hpi

B1: AtATG6 (Y2H, pGAD-AtATG6) (protein, UniProt Q9M367-2 1-386)
chain: MRKEEIPDKSRTIPIDPNLPKWVCQNCHHSLTIVGVDSYAGKFFNDPPPSATQGSSIHGANSVLGSTRMDNSFVVLPRHKPPQSQGIPPRPRGASSPQPDATQSGKAMEESFVVVYKSEPVSDSGGSHNLSLEVGQNGPLHSNTSGFNATINVLTRAFDIARTQTQVEQPLCLECMRVLSDKLEKEVEDVTRDVEAYEACVQRLEGETQDVLSEADFLKEKKKIEEEERKLVAAIEETEKQNAEVNHQLKELEFKGNRFNELEDRYWQEFNNFQFQLIAHQEERDAILAKIEVSQAHLELLNKTNVLIDAFPIRNDGEFGTINNFRLGRLPAIKVEWDEINAAWGQACLLLHTMCNYFRPKFQYPYNYLTVLFLILPFLFDSVDCI
B1 was tested, and the binding [1] was “binds”.

B2: AtATG6 (BiFC fusion) (protein, UniProt Q9M367-2 1-386)
chain: B1 chain
With B2 the binding [2] was “binds”.
